Assay results reported in patent publication US9701627B2, “LRRK2 GTP binding inhibitors for treatment of Parkinson's disease and neuroinflammatory disorders” (University of Maryland, Baltimore, priority 2014, dated 2017).
Some of these results come from one statement about several compounds together.

System: 4E-BP
Test: brain 4E-BP phosphorylation in G2019S-LRRK2-BAC transgenic mice
Format: in vivo, mouse
Settings: 10 mg/kg i.p., 1 h

## CCCNC(=O)c1cccc(NS(=O)(=O)c2cccnc2)c1 [FX2149, N-propyl-3-(pyridine-3-sulfonamido)benzamide]
  4E-BP phosphorylation, % of the untreated control group: up to 15%
